{"source": "patent US10124033B2", "about": "“Peptides and methods of use” (BAXALTA INCORPORATED, priority 2014, dated 2018)", "note": "Some entries share one result that the patent states for a list of compounds."}
{"assay": "plasma stability in pooled normal human plasma", "format": "in vitro ADME", "conditions": "24 hours of incubation in human plasma", "experimental": "Affinity and activity of all 18 peptides was improved compared to parent JBS2572. […] Activity and stability were improved up to 1.5-fold. Plasma stability was determined in pooled normal human plasma and mouse plasma at 37° C.; exemplary results also are provided in Table 3."}
{"substance": "JBS3318: JBS3319 conjugated to 40 kD PEG moiety (EYYVSAGWYDYNTDTYYEFEC; 40 kD PEG; MISC_FEATURE (1)..(1): N-terminal acetylation; MISC_FEATURE (21)..(21): Covalently bound to 400Mal-PEG; MISC_FEATURE (21)..(21): C-terminal amidation)", "binding activity remaining after incubation in human plasma": "greater than 80%"}
{"substance": "JBS3179: JBS3206 tetramer comprising a 40 kD PEG moiety; also described as tetramer of JBS2572 monomers coupled via a 40 kD, four-arm PEG moiety (TGLVSAGWYDYNFDHYREFTC; tetramer via 40 kD four-arm PEG; MISC_FEATURE (1)..(1): N-terminal acetylation; MISC_FEATURE (21)..(21): Maleiimide at each end of a 40kDa 4-brached PEG reacts with C-terminal Cysteine on each of four peptides identical to this sequence to form central tetravalent core; MISC_FEATURE (21)..(21)", "binding activity remaining after incubation in human plasma": "greater than 80%"}
{"substance": "JBS3322: JBS3206 monomer comprising a 40 kD PEG moiety (EYIVTAGWYDYNKDIYYEFKC; 40 kD PEG; MISC_FEATURE (1)..(1): N-terminal acetylation; MISC_FEATURE (21)..(21): Cys(Me-400MA); MISC_FEATURE (21)..(21): C-terminal amidation)", "binding activity remaining after incubation in human plasma": "greater than 80%"}
